# Data as given in the supplement of paper PMC12819154, “High-throughput peptide-centric local stability assay extends protein–ligand identification to membrane proteins, tissues and bacteria” (Nature Structural & Molecular Biology, 2025).
# Amino acid sequences for entries named in this document (tags omitted). A change or cut given only in a name is not applied to a line headed by its entry.
# UniProt Q9JHI7, whole entry: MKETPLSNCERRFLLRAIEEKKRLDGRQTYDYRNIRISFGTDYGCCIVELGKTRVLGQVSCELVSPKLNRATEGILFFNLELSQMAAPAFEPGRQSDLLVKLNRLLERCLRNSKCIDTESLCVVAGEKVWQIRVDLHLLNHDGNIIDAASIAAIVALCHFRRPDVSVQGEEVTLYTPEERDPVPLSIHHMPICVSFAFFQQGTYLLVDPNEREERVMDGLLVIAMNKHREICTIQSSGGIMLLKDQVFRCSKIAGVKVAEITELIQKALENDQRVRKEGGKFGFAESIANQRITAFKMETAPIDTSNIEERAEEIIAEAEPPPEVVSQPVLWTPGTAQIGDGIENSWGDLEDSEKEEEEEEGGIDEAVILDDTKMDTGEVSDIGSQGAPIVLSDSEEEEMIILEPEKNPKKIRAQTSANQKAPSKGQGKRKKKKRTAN
# UniProt Q9EQ80: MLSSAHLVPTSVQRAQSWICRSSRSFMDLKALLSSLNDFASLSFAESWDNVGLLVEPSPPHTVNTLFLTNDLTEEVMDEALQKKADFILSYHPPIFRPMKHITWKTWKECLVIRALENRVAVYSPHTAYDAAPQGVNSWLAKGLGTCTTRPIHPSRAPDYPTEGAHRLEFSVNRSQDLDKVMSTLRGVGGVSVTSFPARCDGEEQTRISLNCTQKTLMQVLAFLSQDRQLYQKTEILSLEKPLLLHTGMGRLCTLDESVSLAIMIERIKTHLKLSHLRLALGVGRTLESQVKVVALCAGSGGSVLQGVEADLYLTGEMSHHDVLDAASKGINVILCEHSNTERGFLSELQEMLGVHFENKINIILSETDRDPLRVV
# UniProt Q9JKS5: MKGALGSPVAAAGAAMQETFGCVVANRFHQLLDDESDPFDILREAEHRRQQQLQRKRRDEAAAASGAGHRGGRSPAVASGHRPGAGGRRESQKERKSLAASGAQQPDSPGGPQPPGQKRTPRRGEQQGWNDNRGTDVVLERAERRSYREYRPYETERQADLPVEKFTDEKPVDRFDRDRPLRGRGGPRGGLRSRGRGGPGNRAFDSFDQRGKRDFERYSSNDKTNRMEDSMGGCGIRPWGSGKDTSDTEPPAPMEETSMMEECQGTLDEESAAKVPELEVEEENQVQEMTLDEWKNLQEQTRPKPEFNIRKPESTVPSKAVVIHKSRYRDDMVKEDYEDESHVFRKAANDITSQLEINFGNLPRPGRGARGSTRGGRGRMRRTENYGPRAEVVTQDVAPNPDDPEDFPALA
# UniProt Q9JJL3: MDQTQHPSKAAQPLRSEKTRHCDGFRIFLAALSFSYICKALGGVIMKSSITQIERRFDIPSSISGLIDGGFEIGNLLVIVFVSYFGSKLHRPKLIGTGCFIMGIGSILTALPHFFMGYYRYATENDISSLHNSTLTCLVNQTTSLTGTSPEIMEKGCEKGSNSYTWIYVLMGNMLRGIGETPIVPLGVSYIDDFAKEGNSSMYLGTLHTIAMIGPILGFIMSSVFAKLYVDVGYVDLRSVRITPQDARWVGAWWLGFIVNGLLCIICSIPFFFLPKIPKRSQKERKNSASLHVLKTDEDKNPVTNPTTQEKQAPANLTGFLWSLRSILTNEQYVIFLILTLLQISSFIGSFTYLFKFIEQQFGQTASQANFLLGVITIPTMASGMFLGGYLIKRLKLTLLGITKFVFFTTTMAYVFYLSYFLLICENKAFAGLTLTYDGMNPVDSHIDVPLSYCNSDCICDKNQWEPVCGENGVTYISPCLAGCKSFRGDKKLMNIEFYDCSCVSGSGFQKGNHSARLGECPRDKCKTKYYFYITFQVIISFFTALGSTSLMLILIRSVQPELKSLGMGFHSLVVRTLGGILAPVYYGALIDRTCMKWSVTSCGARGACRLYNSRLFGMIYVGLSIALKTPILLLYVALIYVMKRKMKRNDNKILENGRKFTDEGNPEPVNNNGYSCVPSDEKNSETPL
# UniProt Q9ER00: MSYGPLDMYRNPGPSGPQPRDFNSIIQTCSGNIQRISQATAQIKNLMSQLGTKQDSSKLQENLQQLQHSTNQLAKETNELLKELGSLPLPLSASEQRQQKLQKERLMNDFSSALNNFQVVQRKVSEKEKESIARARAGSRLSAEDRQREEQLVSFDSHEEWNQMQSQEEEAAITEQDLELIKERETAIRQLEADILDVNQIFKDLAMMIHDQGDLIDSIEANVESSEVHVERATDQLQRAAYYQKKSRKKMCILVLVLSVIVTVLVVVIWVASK
# UniProt Q9DD18: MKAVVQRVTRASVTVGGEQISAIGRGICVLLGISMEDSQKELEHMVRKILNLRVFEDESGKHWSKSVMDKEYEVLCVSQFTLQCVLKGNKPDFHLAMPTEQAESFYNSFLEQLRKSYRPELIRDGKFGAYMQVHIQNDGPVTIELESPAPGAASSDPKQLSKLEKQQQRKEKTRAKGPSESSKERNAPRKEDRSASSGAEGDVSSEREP
# UniProt Q9QWK4: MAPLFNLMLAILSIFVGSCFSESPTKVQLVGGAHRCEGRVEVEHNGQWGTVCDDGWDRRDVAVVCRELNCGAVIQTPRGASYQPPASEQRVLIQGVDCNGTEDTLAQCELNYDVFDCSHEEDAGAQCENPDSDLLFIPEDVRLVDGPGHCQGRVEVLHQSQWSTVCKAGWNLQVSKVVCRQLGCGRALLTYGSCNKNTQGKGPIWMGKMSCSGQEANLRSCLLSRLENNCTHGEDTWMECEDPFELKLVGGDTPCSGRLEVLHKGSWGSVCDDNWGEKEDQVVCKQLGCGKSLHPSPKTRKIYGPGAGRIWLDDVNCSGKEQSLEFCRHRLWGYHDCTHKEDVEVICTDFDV
# UniProt Q9JKP5: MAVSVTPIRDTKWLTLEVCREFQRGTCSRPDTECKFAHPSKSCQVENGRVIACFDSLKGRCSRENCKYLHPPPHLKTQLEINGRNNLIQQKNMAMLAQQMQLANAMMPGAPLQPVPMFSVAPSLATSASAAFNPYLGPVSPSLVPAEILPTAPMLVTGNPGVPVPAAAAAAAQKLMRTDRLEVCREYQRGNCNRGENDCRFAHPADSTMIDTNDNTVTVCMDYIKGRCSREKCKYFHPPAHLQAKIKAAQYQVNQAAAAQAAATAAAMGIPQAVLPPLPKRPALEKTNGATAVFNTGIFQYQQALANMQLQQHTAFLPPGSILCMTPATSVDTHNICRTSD
# UniProt Q9DCJ9: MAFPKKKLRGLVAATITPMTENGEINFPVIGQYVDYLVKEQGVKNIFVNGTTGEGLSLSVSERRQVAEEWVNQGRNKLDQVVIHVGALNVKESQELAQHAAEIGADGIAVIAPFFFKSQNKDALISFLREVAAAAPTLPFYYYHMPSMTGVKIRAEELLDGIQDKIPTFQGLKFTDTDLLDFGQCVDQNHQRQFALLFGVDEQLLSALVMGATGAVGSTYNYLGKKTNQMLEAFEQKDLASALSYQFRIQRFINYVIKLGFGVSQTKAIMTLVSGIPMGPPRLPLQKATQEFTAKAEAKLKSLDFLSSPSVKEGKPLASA
# UniProt Q9DCB8: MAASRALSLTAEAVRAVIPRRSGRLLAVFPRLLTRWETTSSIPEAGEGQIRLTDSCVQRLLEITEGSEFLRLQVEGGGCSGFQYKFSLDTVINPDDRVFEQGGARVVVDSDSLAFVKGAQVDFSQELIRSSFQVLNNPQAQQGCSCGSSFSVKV
# UniProt Q9JJH1: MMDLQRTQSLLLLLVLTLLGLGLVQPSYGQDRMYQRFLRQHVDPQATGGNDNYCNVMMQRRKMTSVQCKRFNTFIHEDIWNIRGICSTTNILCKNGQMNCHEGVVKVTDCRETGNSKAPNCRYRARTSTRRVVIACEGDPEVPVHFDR
# UniProt Q9JMD0: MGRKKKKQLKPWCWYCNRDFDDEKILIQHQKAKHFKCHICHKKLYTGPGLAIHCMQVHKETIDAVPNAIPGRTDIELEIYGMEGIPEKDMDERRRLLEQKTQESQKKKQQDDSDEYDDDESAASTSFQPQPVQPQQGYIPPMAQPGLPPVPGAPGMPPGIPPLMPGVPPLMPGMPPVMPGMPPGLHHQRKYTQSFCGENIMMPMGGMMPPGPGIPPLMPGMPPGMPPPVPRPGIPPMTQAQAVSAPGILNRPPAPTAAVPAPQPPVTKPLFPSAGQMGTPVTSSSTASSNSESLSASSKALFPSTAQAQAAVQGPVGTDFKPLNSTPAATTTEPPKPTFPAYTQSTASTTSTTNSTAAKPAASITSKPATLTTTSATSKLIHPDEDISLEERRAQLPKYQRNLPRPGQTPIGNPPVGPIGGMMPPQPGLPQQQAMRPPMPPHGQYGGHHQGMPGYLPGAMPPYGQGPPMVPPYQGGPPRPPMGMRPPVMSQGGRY
# UniProt Q9DCL2: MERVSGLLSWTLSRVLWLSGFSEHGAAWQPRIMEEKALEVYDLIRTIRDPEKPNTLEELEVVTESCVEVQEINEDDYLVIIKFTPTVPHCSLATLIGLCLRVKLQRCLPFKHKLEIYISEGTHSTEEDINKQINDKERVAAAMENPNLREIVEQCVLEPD
# UniProt Q9JLT4, whole entry: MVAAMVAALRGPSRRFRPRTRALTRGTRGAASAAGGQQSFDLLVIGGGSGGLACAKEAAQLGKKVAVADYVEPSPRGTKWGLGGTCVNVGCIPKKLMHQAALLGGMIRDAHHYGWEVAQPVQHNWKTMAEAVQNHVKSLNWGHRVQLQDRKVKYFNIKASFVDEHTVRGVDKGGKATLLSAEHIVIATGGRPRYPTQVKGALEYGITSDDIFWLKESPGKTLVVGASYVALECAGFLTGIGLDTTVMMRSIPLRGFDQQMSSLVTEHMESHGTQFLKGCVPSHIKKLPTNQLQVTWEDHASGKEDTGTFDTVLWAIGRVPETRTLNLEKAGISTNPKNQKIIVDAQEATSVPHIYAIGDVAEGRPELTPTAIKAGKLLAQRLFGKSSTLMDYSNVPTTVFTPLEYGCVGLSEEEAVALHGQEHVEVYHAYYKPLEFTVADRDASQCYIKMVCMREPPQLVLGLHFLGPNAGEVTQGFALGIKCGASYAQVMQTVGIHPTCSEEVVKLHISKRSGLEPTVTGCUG
# UniProt Q9JII5: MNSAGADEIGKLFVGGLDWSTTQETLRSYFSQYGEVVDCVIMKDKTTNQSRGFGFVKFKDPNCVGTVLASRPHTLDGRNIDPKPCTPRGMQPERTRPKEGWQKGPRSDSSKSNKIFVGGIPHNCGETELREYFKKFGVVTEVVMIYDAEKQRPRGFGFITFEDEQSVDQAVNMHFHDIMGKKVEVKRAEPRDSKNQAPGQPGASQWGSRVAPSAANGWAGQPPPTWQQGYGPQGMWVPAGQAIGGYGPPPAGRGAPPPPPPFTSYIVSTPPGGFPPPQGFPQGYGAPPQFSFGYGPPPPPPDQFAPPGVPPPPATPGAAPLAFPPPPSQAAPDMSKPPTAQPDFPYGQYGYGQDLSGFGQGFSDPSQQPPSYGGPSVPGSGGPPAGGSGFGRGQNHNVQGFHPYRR
# UniProt Q9EQ32: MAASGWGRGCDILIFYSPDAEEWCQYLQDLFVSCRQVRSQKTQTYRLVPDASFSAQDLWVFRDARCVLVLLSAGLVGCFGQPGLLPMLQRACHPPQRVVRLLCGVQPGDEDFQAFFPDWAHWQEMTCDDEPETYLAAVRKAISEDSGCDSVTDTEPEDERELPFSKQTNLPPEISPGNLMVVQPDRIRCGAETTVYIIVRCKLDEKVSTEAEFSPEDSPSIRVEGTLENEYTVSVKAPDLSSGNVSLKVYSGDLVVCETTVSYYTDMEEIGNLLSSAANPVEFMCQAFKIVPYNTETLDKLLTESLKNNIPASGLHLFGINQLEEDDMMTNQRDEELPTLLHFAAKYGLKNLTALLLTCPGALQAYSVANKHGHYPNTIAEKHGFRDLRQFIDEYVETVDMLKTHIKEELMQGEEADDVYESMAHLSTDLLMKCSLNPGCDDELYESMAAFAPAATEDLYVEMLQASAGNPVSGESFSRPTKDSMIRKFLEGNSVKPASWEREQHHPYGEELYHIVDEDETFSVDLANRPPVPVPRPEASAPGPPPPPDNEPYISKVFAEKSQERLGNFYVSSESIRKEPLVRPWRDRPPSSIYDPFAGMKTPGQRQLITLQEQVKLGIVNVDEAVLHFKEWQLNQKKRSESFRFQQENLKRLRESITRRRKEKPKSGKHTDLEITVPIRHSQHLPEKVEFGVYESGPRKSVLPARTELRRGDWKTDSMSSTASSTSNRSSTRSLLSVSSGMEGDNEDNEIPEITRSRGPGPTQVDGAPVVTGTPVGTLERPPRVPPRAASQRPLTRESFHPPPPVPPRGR
# UniProt Q9JIM1: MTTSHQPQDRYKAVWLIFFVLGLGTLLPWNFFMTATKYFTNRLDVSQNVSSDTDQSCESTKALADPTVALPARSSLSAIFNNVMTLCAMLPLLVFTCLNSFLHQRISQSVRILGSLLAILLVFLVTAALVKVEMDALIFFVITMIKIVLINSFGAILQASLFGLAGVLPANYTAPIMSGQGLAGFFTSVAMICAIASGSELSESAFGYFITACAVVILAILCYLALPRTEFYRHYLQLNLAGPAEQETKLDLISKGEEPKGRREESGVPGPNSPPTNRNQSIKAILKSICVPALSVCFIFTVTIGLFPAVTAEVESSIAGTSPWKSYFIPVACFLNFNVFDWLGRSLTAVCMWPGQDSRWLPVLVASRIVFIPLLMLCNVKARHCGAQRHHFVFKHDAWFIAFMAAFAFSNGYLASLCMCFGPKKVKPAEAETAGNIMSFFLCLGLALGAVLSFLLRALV
# Some of the results follow. Small differences around the control level are noise.
# Compound: CN[C@@H]1C[C@H]2O[C@@](C)([C@@H]1OC)n1c3ccccc3c3c4c(c5c6ccccc6n2c5c31)C(=O)NC4 [staurosporine]
# Test: log2 fold change of pooled soluble protein (PISA), ligand vs vehicle (log2 ratio); higher = more thermally stabilized
# Details: ligand concentration: 20 uM; assay format: PISA pool 52.9/55.5/58.6 C
row,Target,log2 fold change of pooled soluble protein
1,UniProt Q9DCH6,-0.105
2,UniProt Q9JHI7,-0.122
3,UniProt Q9EQ80,0.0322
4,UniProt Q9JKS5,-0.11
5,UniProt Q9JJI8,0.301
6,UniProt Q9JLB0,-0.0711
7,UniProt Q9QXY6,0.062
8,UniProt Q9JK38,-0.108
9,UniProt Q9JJU8,0.251
10,UniProt Q9JIH2,0.149
11,UniProt Q9EQG9,0.0128
12,UniProt Q9JJL3,0.137
13,UniProt Q9ER00,-0.0657
14,UniProt Q9QXN3,0.118
15,UniProt Q9DCS9,-0.0394
16,UniProt Q9ERF3,0.405
17,UniProt Q9DD18,0.36
18,UniProt Q9DC70,0.0637
19,UniProt Q9QWK4,-0.0241

row,Target,log2 fold change of pooled soluble protein
1,UniProt Q9JKP5,-0.0229
2,UniProt Q9DCJ9,0.00978
3,UniProt Q9DCB8,-0.083
4,UniProt Q9EPL8,0.179
5,UniProt Q9JJH1,-0.00886
6,UniProt Q9JK92,-0.00872
7,UniProt Q9JMD0,0.167
8,UniProt Q9JM76,-0.0219
9,UniProt Q9DCL2,-0.277
10,UniProt Q9JLT4,-0.141
11,UniProt Q9ES97,-0.0771
12,UniProt Q9JII5,0.245
13,UniProt Q9EQ32,-0.501
14,UniProt Q9EPB4,0.707
15,UniProt Q9JLZ3,-0.0777
16,UniProt Q9JL19,-0.0399
17,UniProt Q9JIM1,0.389
18,UniProt Q9JK48,0.2

# 2 records picked at random from the list so far, as already listed:
row,Target,log2 fold change of pooled soluble protein
8,UniProt Q9JM76,-0.0219
18,UniProt Q9DC70,0.0637
